Results: US20030055018A1, “Modulation of phosphoinositide 3-kinase activity” (priority 2001, published 2003)
At least one compound was matched to its structure with a doubt left.

Columns and labels:
PI3K = assay: PtdIns-3,4,5-P3 measured by thin layer chromatography in lipid extracts of 32P-labeled transfected NIH3T3 cells; type: cell-based, mouse; settings: 100 nM wortmannin, 45 min prior to lipid extraction
Description: In FIG. 1, it is shown that p85 inhibits while p85Δonc enhances PI3K activation by small GTPases. (A) Schematic diagrams and expression of transiently transfected HA-tagged p85-WT and p85Δonc constructs. (B) Upper panel. p85-WT inhibits while p85Δonc enhances HRas-induced PtdIns-3, 4, 5-P3 production. The indicated constructs were transiently transfected into NIH3T3 cells. Sixteen hours after transfection, the cells were cultured in serum-free media. Five hours later, they were labeled with ^32P-orthophosphate for 1.5 hours. Total phospholipids were analyzed by thin layer chromatography. (B) Lower panel. p85-WT inhibits while p85Δonc enhances H-Ras induced Akt phosphorylation. Immunoblots of cell extracts from duplicate transfections were probed with an antibody that recognizes Akt phosphorylated at Thr308 or with antibodies that recognize the proteins expressed from the transfected constructs. […] NIH3T3 cells were transiently transfected with the indicated constructs. ^32P-labeled PtdIns-3, 4, 5-P3 was measured as described in B. Akt phosphorylation at Thr308 and expression of transfected constructs were determined by probing immunoblots with the corresponding antibodies. […]
PtdIns-3, 4, 5-P3 was measured in lipid extracts of ^32P-labeled NIH3T3 cells by thin layer chromatography (Maehama et al., 1998, J Biol Chem 273, 13375-8). […]

PI 3-kinase subtypes = settings: cited from earlier work

| Compound | PtdIns-3, 4, 5-P3 induction by p85Δonc and constitutively-active H-Ras (PI3K) | Specificity among PI 3-kinase subtypes (PI 3-kinase subtypes) |
| --- | --- | --- |
| COC[C@H]1OC(=O)c2coc3c2[C@@]1(C)C1=C(C3=O)[C@@H]2CCC(=O)[C@@]2(C)C[C@H]1OC(C)=O [wortmannin] | inhibited | lack specificity |
| O=c1cc(N2CCOCC2)oc2c(-c3ccccc3)cccc12 [LY294002] | – | lack specificity |
